Results reported in PubChem BioAssay AID248 (DTP/NCI, 2004).
The list does not hold the whole screen: it gathers some chemical classes. Not every dose and run of a compound is shown. T/C: endpoint of the treated group in % of that of the vehicle group. Some doses have a count of surviving animals in place of a T/C: the source files T/C as zero there, which appears to mark a toxic dose or a test without result, not a measured value. Some doses without a T/C left all or most animals alive at the check, yet need not have been tolerated: survival well below the control is almost never listed, so the zero probably covers shortened survival too. Survivors were counted at the toxicity check, usually on the fifth day, unless a day is given; later deaths do not show. Schedule codes are those of the source, taken here to give the interval after Q, in days (D) or hours (H), and the number of doses after X. Where survival is the endpoint, the PubChem record calls one and a half times the control and up active, and a quarter to a half above the control has no call in these data; cut-offs in other NCI protocols can differ. Some doses were run more than once; their values stand side by side, smallest first. Some entries show no survivor count and are marked so; the dose need not have been tolerated. Some T/C values are followed by the survivors on the day toxicity was checked, most often the fifth; where neither a count nor a note follows, no animal had died by that day. Some complexes appear as separate parts, the way the source draws them; their charges need not add up.

Tested on: L1210 leukemia ip in BDF1 mice, survival T/C
Test: NCI In Vivo Anticancer Drug Screen. Data for tumor model L1210 Leukemia (intraperitoneal) in B6D2F1 (BDF1) mice
Conditions: T/C endpoint: mean survival time, higher T/C = longer survival
[1] = dose: 75.0 mg/kg/injection, schedule: Q01DX001 (ip), vehicle: saline
[2] = dose: 75.0 mg/kg/injection, schedule: Q04DX003 (ip), vehicle: saline
[3] = dose: 150.0 mg/kg/injection, schedule: Q01DX001 (ip), vehicle: saline
[4] = dose: 150.0 mg/kg/injection, schedule: Q04DX003 (ip), vehicle: saline
[5] = dose: 300.0 mg/kg/injection, schedule: Q01DX001 (ip), vehicle: saline
[6] = dose: 300.0 mg/kg/injection, schedule: Q04DX003 (ip), vehicle: saline
[7] = dose: 100.0 mg/kg/injection, schedule: Q04DX002 (ip), vehicle: saline with Tween-80
[8] = dose: 200.0 mg/kg/injection, schedule: Q04DX002 (ip), vehicle: saline with Tween-80
[9] = dose: 50.0 mg/kg/injection, schedule: Q01DX001 (ip), vehicle: carboxymethylcellulose (CMC)
[10] = dose: 100.0 mg/kg/injection, schedule: Q01DX001 (ip), vehicle: carboxymethylcellulose (CMC)
[11] = dose: 200.0 mg/kg/injection, schedule: Q01DX001 (ip), vehicle: carboxymethylcellulose (CMC)
[12] = dose: 400.0 mg/kg/injection, schedule: Q01DX001 (ip), vehicle: carboxymethylcellulose (CMC)
[13] = dose: 400.0 mg/kg/injection, schedule: Q04DX002 (ip), vehicle: saline with Tween-80
[14] = dose: 100.0 mg/kg/injection, schedule: Q01DX001 (ip), vehicle: saline
[15] = dose: 200.0 mg/kg/injection, schedule: Q01DX001 (ip), vehicle: saline
[16] = dose: 400.0 mg/kg/injection, schedule: Q01DX001 (ip), vehicle: saline

Oc1ccc(N(CCCl)CCCl)cc1O
T/C (dose: 1.17 mg/kg/injection, schedule: Q01DX001 (ip), vehicle: water): 100 % of control | T/C (dose: 2.34 mg/kg/injection, schedule: Q01DX001 (ip), vehicle: water): 109 % of control | T/C (dose: 4.68 mg/kg/injection, schedule: Q01DX001 (ip), vehicle: water): 110 % of control [5 of 6 alive] | survivor count (dose: 9.38 mg/kg/injection, schedule: Q01DX001 (ip), vehicle: water): 0 of 6 | survivor count (dose: 18.75 mg/kg/injection, schedule: Q01DX001 (ip), vehicle: water): 0 of 6 | survivor count (dose: 37.5 mg/kg/injection, schedule: Q01DX001 (ip), vehicle: water): 0 of 6 | survivor count (dose: 75.0 mg/kg/injection, schedule: Q01DX001 (ip), vehicle: water): 0 of 6 | survivor count (dose: 150.0 mg/kg/injection, schedule: Q01DX001 (ip), vehicle: water): 0 of 6 | survivor count (dose: 300.0 mg/kg/injection, schedule: Q01DX001 (ip), vehicle: water): 0 of 6

CC(C)=N/N=C(\N)N[N+](=O)[O-]
T/C [1]: 101 % of control | T/C [2]: 100 % of control | T/C [3]: 101 % of control | T/C [4]: 96 % of control | T/C [5]: 108 % of control [5 of 6 alive] | survivor count [6]: 1 of 6

C[PH+](c1ccccc1)c1ccccc1.C[PH+](c1ccccc1)c1ccccc1.C[PH+](c1ccccc1)c1ccccc1.C[PH+](c1ccccc1)c1ccccc1.F[P-](F)(F)(F)(F)F.[Rh]
T/C (dose: 25.0 mg/kg/injection, schedule: Q04DX002 (ip), vehicle: saline with Tween-80): 93 % of control | T/C (dose: 50.0 mg/kg/injection, schedule: Q04DX002 (ip), vehicle: saline with Tween-80): 86 % of control | T/C [7]: 117 % of control | T/C [8]: 90 % of control

CC1C=C(Cc2ccccc2)CC(C)N1C (stereo not drawn)
T/C [9]: 91 % of control [survivor count not shown] | T/C [10]: 96 % of control [survivor count not shown] | T/C [11]: 94 % of control [survivor count not shown] | T/C [12]: 93 % of control [survivor count not shown]

Cc1cc(N(CCCl)CCCl)ccc1C=NCCO
T/C [9]: 109 % of control | T/C [10]: 105 % of control | T/C [11]: 117 % of control | survivor count [12]: 2 of 4

CC(C)OP(OC(C)C)c1ccccc1
T/C (dose: 100.0 mg/kg/injection, schedule: Q04DX002 (ip), vehicle: saline): 106 % of control | T/C (dose: 200.0 mg/kg/injection, schedule: Q04DX002 (ip), vehicle: saline): 102 % of control | survivor count (dose: 400.0 mg/kg/injection, schedule: Q04DX002 (ip), vehicle: saline): 2 of 3

CN1P(Cl)(Cl)(Cl)N(C)P1(Cl)(Cl)Cl
T/C [7]: 93 % of control | T/C [8]: 100 % of control | T/C [13]: 100 % of control

ClC1CCC2C=CCC1S2 (stereo not drawn)
T/C (dose: 25.0 mg/kg/injection, schedule: Q01DX009 (ip), vehicle: saline with Tween-80): 92 % of control | T/C (dose: 50.0 mg/kg/injection, schedule: Q01DX009 (ip), vehicle: saline with Tween-80): 96 % of control | T/C (dose: 100.0 mg/kg/injection, schedule: Q01DX009 (ip), vehicle: saline with Tween-80): 92 and 94 % of control

CCCCO[PH](=O)OCCCC.[I][Hg]
T/C (dose: 25.0 mg/kg/injection, schedule: Q04DX002 (ip), vehicle: Klucel (hydroxypropylcellulose) (HPC)): 108 % of control | T/C (dose: 50.0 mg/kg/injection, schedule: Q04DX002 (ip), vehicle: Klucel (hydroxypropylcellulose) (HPC)): 91 % of control | survivor count (dose: 100.0 mg/kg/injection, schedule: Q04DX002 (ip), vehicle: Klucel (hydroxypropylcellulose) (HPC)): 3 of 3 | T/C [7]: 98 % of control [2 of 3 alive] | survivor count [8]: 0 of 3 | survivor count [13]: 0 of 3

CN(CCCl)C1CCCCCCC1
T/C (dose: 12.5 mg/kg/injection, schedule: Q04DX003 (ip), vehicle: saline): 104 % of control | T/C (dose: 25.0 mg/kg/injection, schedule: Q04DX003 (ip), vehicle: saline): 110 % of control

O=C(O)C(CSSCC(Nc1ccc([N+](=O)[O-])cc1[N+](=O)[O-])C(=O)O)Nc1ccc([N+](=O)[O-])cc1[N+](=O)[O-] (stereo not drawn)
T/C [14]: 107 % of control | T/C [15]: 101 % of control | T/C [16]: 105 % of control [5 of 6 alive]

NC(=O)C(=O)NNC(=S)NP(=O)(Oc1ccccc1)Oc1ccccc1
T/C (dose: 100.0 mg/kg/injection, schedule: Q01DX009 (ip), vehicle: carboxymethylcellulose (CMC)): 101 % of control | T/C (dose: 200.0 mg/kg/injection, schedule: Q01DX009 (ip), vehicle: carboxymethylcellulose (CMC)): 101 % of control | T/C (dose: 400.0 mg/kg/injection, schedule: Q01DX009 (ip), vehicle: carboxymethylcellulose (CMC)): 91 % of control

CCOP(=S)(NC(=S)Nc1ccccc1NC(=S)NP(=S)(OCC)OCC)OCC
T/C (dose: 50.0 mg/kg/injection, schedule: Q01DX009 (ip), vehicle: saline): 97 % of control | T/C (dose: 100.0 mg/kg/injection, schedule: Q01DX009 (ip), vehicle: saline): 94 % of control | T/C (dose: 200.0 mg/kg/injection, schedule: Q01DX009 (ip), vehicle: saline): 97 % of control

CCP1(=O)Nc2ccccc2S1 (stereo not drawn)
T/C [1]: 101 % of control [survivor count not shown] | T/C [3]: 100 % of control [survivor count not shown]

CCOP1OC(C)(C)C(C)(C)O1
T/C [14]: 102 % of control | T/C [15]: 93 % of control | T/C [16]: 96 % of control

COC(=O)C(C(=O)OC)C1=NCC(I)CS1 (stereo not drawn)
T/C (dose: 37.5 mg/kg/injection, schedule: Q01DX009 (ip), vehicle: saline): 91 % of control | T/C [1]: 97 % of control | T/C (dose: 75.0 mg/kg/injection, schedule: Q01DX009 (ip), vehicle: saline): 93 % of control | T/C [2]: 105 % of control | T/C [3]: 97 % of control | T/C (dose: 150.0 mg/kg/injection, schedule: Q01DX009 (ip), vehicle: saline): 91 % of control [4 of 6 alive] | T/C [4]: 103 % of control | T/C [5]: 93 % of control [4 of 6 alive] | T/C [6]: 96 % of control

C(=C/[AsH](c1ccccc1)c1ccccc1)/[AsH](c1ccccc1)c1ccccc1.C(=C/[AsH](c1ccccc1)c1ccccc1)/[AsH](c1ccccc1)c1ccccc1.[Cl][Rh][Cl]
T/C (dose: 25.0 mg/kg/injection, schedule: Q01DX001 (ip), vehicle: saline): 98 % of control | T/C (dose: 50.0 mg/kg/injection, schedule: Q01DX001 (ip), vehicle: saline): 107 % of control | T/C [14]: 104 % of control | T/C [15]: 113 % of control

ClCCN1CCCCc2ccccc2C1
T/C (dose: 15.0 mg/kg/injection, schedule: Q01DX001 (ip), vehicle: saline): 105 % of control | survivor count (dose: 30.0 mg/kg/injection, schedule: Q01DX001 (ip), vehicle: saline): 3 of 6 | survivor count (dose: 60.0 mg/kg/injection, schedule: Q01DX001 (ip), vehicle: saline): 0 of 6 | survivor count [1]: 0 of 6 | survivor count [3]: 0 of 6 | survivor count [5]: 1 of 6

N/C(=N\[N+](=O)[O-])NNC=O
T/C [14]: 102 % of control | T/C [15]: 86 % of control | T/C [16]: 105 % of control

CCOP(=O)(Nc1cccc(C(F)(F)F)c1)OCC
T/C [10]: 94 % of control | T/C [11]: 100 % of control | T/C [12]: 97 % of control
